These are yes or no findings as the source states them, for the method shown. In cells and extracts the contact can be indirect. A yes stands for co-enrichment or nearness to the bait. Other partners may have been found. Sequences can lack the tags named with a protein.
T1: Slm9-3XFLAG (S. pombe) (UniProt O74309)
T1 sequence: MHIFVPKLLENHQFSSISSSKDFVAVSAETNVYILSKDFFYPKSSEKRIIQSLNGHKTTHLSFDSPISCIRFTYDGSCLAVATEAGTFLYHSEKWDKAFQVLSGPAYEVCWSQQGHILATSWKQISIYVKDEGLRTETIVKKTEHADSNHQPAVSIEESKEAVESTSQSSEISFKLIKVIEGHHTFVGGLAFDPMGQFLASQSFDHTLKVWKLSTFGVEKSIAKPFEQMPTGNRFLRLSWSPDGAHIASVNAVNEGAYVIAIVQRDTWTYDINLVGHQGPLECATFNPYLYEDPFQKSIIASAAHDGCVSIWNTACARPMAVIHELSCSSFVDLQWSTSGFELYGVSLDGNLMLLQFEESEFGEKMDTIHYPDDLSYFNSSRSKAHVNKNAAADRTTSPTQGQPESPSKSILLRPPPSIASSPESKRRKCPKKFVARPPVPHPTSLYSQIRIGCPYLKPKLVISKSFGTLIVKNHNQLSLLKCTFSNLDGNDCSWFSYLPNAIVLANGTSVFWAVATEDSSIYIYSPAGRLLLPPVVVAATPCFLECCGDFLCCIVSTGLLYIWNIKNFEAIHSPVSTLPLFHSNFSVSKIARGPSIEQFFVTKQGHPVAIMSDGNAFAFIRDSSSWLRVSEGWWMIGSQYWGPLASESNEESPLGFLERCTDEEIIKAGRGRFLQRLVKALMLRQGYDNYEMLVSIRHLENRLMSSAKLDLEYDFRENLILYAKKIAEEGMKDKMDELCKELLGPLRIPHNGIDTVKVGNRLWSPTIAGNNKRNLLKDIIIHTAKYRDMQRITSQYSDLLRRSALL

B1: Hip1, HIRA protein (protein, UniProt P87314 1-932)
chain: MKIKKIPWLGHFDDRGHRLSIFSIHIHPDGSRIATGGLDGTIRIWSTEAINRENENENENEDLPKQLCCMSTHTGTVTSVRFSPNGQYLASGSDDRVVIIWHKEEAIPGLGSTFGSGEKHTENWRSYRRLLGHDNDIQDLCWSYDSQLVVSVGLDSSIIVWNGTTFERLKRIEAHQSHVKGITFDPAGKYFATESDDRTIKVWRVSDFSIEKTITGPFNNSPLSTYFRRPSWSPDGKHIAAPNAMNGPVSCVSIIERGTWTSEINLIGHEGPVEVTAFNPKLFRDKNDKLVCILACGGQDRSLSIWSSALPRPLLSCQNVFQKSIGDVCWSPDGLSLFLCSYDGNVLVCTFEKEEFGDMVSDEEISKALAKYGHGRHGIVLPESAKQLELEETAYAILKKPSSLSTTDPTLVPQSSSTPKSAQKTPQKLPAFLPNRLTAETVDTNKLTASKEQIASPKRPGPSDNGNEIPTKFVQKVTITKEGKKRVAPQLLTTLSATPSTSRLASTQLQHTGSSQLPPQQFSQPINSLPKGGVPILIVGNKTKVNHENDESDQALQEEKIEEGLLKNYYSSLIDSSTSISNINFEAPRYKTNIVHSLNNEQKYVLEVKNGTSEKNPTRIVALENGNTKWMDYLPRPVILVTGSIHFWSIACDDGSLHLYSLTGSRLLPPIMIESKASFLHCNNAYLLCISSSGMVYAWNVVNKTALFTANSLAPILSRVSNNVTIENNSTDIPHVVIASISKEGVPSVTLSTGETYVYSSTMLCWQRITEPWWAIGSREWDSSGLLQSNTQTESQPLKIYEHRTNNVLMDSGRGKLLQKMVADAITEEGYDDFETIVTINHLENKIASARLLKLDDEFLVTSEVYVRLLMHHGLWQKLEEFLGELRTQTKCSIKLSGREVVAKMLVVLRQAVQTDNEFDRANKLIEKYAST
B2: Cct8, chaperonin-containing T-complex theta subunit (protein, UniProt P78921 1-546)
chain: MALRVPKASGPQLFREGYRIMQGVEDAVIRNCNAIRELSEITRTSLGPNGKNKIVVNHLQQTFLTNDAATIIRELEVIHPAAKLVVDATQQQENELGDAANFVVVFTGELLAKAENMIRMGLTPLEIAKGYEMALSHTMEVLEEICADKIETVESEKELIKAIRTCISSKQYGNEDFLSDLVAKAILTVLPKDPSKFNVDNIRVVKIMGSSLYNSQVVKGMVFPREPEGTVTRSKEAKVAVFSCPLDISQTETKGTVLLHNAQEMLDFSKGEENLIESHIKEIYDAGVRVVVTSGNVNDLVLHYLNRFEILVIRVPSKFELRRLCRVVGATPLARMGVPMPEEMGSVDVVETIEIGGDRVTVFRQVEDITRTATIVLRGATKTYLDDLERAIDDGVNIVKALVKDNRLIFGAGASDMQLCIRLISVGEKTPGIYQHAIKQYGEAFEVVPRTISENAGLDPTDVISKLYAAHHKENGESIGVDVECENDGTLDAKEAGIFDVLLAKKSAIRLATETVLTVLNVDQVVMSKPAGGPKPPGPNPHWDDD
B3: Dfr1, dihydrofolate reductase (protein, UniProt P36591 1-461)
chain: MSKPLKVLCLHGWIQSGPVFSKKMGSVQKYLSKYAELHFPTGPVVADEEADPNDEEEKKRLAALGGEQNGGKFGWFEVEDFKNTYGSWDESLECINQYMQEKGPFDGLIGFSQGAGIGAMLAQMLQPGQPPNPYVQHPPFKFVVFVGGFRAEKPEFDHFYNPKLTTPSLHIAGTSDTLVPLARSKQLVERCENAHVLLHPGQHIVPQQAVYKTGIRDFMFSAPTKEPTKHPRDLTMIVAVSSPNLGIGKKNSMPWHIKQEMAYFANVTSSTESSGQLEEGKSKIMNVVIMGRSCYDSLPKKNRPLKDRINIVITRNSNYNFGLTKKEKMPENLYAADCIDSALDLVAEKYGADSDIQVGKVFIIGGSFLYGSALYHPLTKNLLFTRIHKEYPCDSFFPFEPAESSDWVRKAHPELEKFVGIPVEEGRLKAASSNKEEVEIEFELYGKNDDVNVALEKLSIC

The binders below were run against T1, Slm9-3XFLAG (S. pombe) (assay: affinity purification with mass spectrometry; extracts from 5 g of cells expressing Slm9-FLAG, Dynabeads coupled to anti-FLAG M2 antibody for 15 mins, Benzonase treatment, on-bead tryptic digestion, LC-MS/MS; listed proteins found in at least two independent purifications and absent from four control purifications from untagged cells).

binding, binds:
B1
B2
B3

— PMC2956695
